## Percent effect of library compounds

The chains behind the UniProt entries cited, without tags or fusion partners. Residues count along the entry.
UniProt I6X8D2, whole entry: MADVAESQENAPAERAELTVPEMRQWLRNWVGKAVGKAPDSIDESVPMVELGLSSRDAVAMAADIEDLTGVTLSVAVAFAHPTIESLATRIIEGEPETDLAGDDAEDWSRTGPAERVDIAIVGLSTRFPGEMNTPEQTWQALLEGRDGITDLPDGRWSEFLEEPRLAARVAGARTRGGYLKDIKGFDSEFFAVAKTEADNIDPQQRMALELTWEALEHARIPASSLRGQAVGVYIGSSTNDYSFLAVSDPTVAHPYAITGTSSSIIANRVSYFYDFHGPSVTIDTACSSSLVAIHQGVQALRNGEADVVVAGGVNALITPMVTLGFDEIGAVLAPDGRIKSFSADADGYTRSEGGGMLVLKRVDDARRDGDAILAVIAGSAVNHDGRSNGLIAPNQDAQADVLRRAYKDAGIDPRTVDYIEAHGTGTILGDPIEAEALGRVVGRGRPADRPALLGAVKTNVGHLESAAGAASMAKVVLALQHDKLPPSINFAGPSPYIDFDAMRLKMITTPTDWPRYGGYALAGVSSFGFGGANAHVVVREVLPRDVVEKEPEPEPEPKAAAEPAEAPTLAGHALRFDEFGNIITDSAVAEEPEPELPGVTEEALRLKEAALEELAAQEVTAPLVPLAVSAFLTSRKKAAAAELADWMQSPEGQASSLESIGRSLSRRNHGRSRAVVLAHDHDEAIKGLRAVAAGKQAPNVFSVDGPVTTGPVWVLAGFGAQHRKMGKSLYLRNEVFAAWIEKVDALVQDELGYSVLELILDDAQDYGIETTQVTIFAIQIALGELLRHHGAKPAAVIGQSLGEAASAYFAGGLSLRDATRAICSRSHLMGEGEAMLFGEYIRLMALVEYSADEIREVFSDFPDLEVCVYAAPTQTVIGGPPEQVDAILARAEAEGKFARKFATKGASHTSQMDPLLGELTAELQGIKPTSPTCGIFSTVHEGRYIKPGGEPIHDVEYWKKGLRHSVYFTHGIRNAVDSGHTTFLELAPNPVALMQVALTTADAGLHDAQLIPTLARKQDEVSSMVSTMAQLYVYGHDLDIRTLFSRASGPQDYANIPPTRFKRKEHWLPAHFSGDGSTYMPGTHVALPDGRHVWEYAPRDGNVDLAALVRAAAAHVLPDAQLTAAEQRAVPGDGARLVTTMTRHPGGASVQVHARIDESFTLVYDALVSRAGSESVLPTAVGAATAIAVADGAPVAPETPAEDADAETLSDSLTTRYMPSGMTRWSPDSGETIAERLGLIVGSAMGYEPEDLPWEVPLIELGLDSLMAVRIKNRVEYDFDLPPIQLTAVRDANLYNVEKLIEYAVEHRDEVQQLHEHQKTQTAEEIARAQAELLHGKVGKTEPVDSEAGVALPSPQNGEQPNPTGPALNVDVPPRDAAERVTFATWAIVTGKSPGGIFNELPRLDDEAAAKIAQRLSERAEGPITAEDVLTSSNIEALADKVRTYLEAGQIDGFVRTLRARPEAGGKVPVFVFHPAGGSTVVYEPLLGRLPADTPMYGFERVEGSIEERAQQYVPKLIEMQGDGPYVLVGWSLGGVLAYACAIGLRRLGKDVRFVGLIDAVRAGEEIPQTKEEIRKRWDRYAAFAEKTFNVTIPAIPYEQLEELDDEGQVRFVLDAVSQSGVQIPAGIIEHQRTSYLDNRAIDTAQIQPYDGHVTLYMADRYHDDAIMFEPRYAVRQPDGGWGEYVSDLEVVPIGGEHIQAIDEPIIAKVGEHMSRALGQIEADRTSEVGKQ
UniProt A4I591, 1-473: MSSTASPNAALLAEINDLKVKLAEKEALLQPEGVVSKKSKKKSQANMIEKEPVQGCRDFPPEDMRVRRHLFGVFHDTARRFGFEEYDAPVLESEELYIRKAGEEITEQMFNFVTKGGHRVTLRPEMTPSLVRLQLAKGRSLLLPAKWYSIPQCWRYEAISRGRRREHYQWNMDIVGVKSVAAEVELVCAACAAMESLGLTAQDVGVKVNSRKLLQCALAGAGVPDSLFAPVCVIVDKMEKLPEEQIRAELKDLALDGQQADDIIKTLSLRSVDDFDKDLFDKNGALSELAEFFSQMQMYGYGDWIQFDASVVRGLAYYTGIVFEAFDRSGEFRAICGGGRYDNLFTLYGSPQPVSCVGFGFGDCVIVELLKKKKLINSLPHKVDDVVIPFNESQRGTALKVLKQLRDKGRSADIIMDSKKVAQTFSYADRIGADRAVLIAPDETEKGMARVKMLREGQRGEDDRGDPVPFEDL
UniProt P9WPC5, whole entry: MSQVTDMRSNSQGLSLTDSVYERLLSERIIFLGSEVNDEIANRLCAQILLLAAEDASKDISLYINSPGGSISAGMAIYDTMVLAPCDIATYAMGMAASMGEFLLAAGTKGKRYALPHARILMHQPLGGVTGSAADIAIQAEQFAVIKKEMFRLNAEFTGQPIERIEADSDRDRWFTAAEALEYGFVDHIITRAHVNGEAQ
UniProt P9WPC3, whole entry partner: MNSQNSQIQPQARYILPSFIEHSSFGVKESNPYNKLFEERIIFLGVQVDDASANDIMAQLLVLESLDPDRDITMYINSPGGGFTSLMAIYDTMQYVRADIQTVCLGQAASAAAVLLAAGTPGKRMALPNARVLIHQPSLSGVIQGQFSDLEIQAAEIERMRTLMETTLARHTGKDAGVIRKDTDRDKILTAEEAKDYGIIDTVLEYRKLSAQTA
UniProt P9WNZ1, whole entry: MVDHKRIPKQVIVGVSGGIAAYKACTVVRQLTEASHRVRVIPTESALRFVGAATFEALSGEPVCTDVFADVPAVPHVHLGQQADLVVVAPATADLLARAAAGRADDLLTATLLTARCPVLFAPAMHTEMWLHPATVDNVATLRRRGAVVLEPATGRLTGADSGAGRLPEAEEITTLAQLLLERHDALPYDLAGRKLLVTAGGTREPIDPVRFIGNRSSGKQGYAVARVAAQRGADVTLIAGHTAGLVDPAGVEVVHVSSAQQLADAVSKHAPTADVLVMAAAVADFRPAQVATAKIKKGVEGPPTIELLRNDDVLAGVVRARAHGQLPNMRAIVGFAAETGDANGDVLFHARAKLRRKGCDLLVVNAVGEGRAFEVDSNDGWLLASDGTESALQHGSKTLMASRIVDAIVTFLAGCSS

A: 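Enzyme assay of the thioesterase domain of polyketide synthase 13; the read-out is not stated. Target: Polyketide synthase Pks13, Mycobacterium tuberculosis (UniProt I6X8D2). Compounds at 30 µM. The record gives no direction; the compounds picked for IC50 retests had high values, so higher reads as stronger inhibition. Size under these conditions: about 67,000 compounds, about 300 of them at 50% or above in at least one test.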
B: 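Enzyme assay of histidyl-tRNA synthetase; the read-out is not stated. Target: Histidine-tRNA ligase, Leishmania infantum (UniProt A4I591). Compounds at 30 µM. Direction is inferred from retests: higher values go with stronger inhibition. The assay is labelled LdHisRS but filed under L. infantum. Of about 69,000 compounds tested this way, about 410 (0.6%) reached 50% or more in at least one test.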
C: 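Cell assay of Leishmania donovani living inside macrophages; the read-out is not stated. Concentration: 30 µM. Direction is inferred from retests: higher values go with stronger inhibition. About 69,000 compounds were tested under these conditions; 1.5% (about 1,000) showed 50% or more at least once.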
D: 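Protease assay of ClpP1P2, read by the AMC dye that it sets free. Target: ClpP1P2, Mycobacterium tuberculosis (UniProt P9WPC5 and UniProt P9WPC3). Compounds at 50 µM. Higher reads as stronger inhibition, judged from the few compounds that gave an IC50. Most other retested compounds had strongly negative values. About 69,000 compounds were tested under these conditions; 0.015% (about 10) showed 50% or more at least once.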
E: 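Assay of Toxoplasma gondii numbers, read through their beta-galactosidase reporter with a colour substrate. Tested at 10 µM. The record gives no direction; the compounds picked for IC50 retests had high values, so higher reads as fewer parasites. About 67,000 compounds were tested under these conditions; 0.38% (about 260) showed 50% or more at least once.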
F: 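Coenzyme A biosynthesis protein CoaBC, Mycobacterium tuberculosis (UniProt P9WNZ1). Enzyme assay of CoaBC with a phosphate dye (Biomol Green) read at 650 nm. Concentration: 30 µM. Higher reads as stronger inhibition, judged from the few compounds that gave an IC50. Most strong results did not repeat in a second test. Of about 67,000 compounds tested this way, about 40 (0.06%) reached 50% or more in at least one test.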

Each number is a percent effect as filed.
The controls that fix the scale are not given in the record; negative values are as filed.
Compounds were drawn at random from those tested, without regard to their results.

- Cc1nc(-c2ccsc2)ccc1C(=O)NCCN1CCOCC1 : A: -10.22%; B: -8.8%; C: -2.387%; D: -3.891%; E: -11.86%; F: 1.064%
- CN(C)C(=O)c1n[nH]c2c1CCN(Cc1nccs1)C2 : A: 18.98%; B: 14.47%; C: -19.17%; D: 3.288%; E: 0.251%; F: 0.4673%
- CN1CCC(c2nnc3ccc(C(=O)N4CCCCC4)cn23)C1.O=C(O)C(F)(F)F (centres undefined) : C: 20.31%; E: -4.39%
- Cc1nc(C2CN(Cc3ccc(F)cc3Br)CCO2)no1 (centres undefined) : A: -9.785%; B: 4.082%; C: 1.983%; D: -7.851%; E: 7.107%; F: 8.726%
- CCc1noc(C(C)N2CCN(Cc3ncc(C(C)(C)C)o3)CC2)n1 (centres undefined) : A: -6.929%; B: 10.4%; C: -9.025%; D: 26.75%; E: -0.4234%; F: -0.266%
- Cc1occc1C(=O)N1C[C@@H](C(=O)N2CCCCO2)C[C@H]2OCC[C@H]21 : A: -31.5%; B: 20%; D: -8.349%; F: 5.212%
- Cc1ccc(CN2CC[C@H]3[C@H](CO[C@H]3CN(C)C)C2)o1 : A: 7.743%; B: 22%; D: -4.435%; F: 1.97%
- O=C(Cc1csc(-c2ccco2)n1)N1CCN(c2cnccn2)CC1 : A: 14.92%; B: 56.76%; C: -8.987%; D: 10.76%; E: -3.206%; F: 3.133%
- O=C(O)C(F)(F)F.O=C(O)C(F)(F)F.[H][C@@]12COC[C@]1(COc1cccnc1)CN(Cc1cccc(OC)c1)C2 : C: 25.08%; E: -6.647%
- O=C1NC[C@]2(CC[C@@H](C(=O)N3CCCC(O)C3)CC2)Oc2ccccc21 (some centres undefined) : A: 6.768%; B: 11.72%; C: 19.54%; D: -7.847%; E: 4.605%; F: -1.112%
- COc1c(CNCc2ccc(C(=O)N3CCCC3)cc2)c(C)nn1C : A: -4.71%; B: 20.51%; D: -20.26%; F: -6.166%
- COCc1nc(C(=O)N2CCCC2c2cccc(C)c2)cs1 (centres undefined) : A: -1.312%; B: 20%; C: 25.9%; D: 4.517%; E: -9.639%; F: 8.779%
- [H][C@@]12CN(c3nc(C)cc(C)n3)C[C@]1([H])N(Cc1ccccc1OC)C(=O)O2 : C: 12.38%; E: 6.059%
- Cc1cc(C)n2c(CCCNS(=O)(=O)c3ccc(F)cc3)nnc2n1 : A: -12.61%; B: 4.348%; C: 6.474%; D: -16.1%; E: 26.94%; F: 0.7264%
- Cc1nccn1-c1ccc(C(C)NCc2cc[nH]n2)cc1 (centres undefined) : A: -32.64%; B: 19.48%; C: 33.44%; D: -2.841%; E: 0.2363%; F: 4.114%
- CNC(=O)NC(=O)C(C)N(C)CCCc1cc(-c2ccccc2)no1 (centres undefined) : A: -4.359%; B: 20.18%; C: 26.31%; D: -15.24%; E: 15.87%; F: 5.355%
- Cc1nc(C2CCCN2Cc2nc(C)c(C)o2)no1 (centres undefined) : A: -6.961%; B: 21.54%; C: 18.37%; D: 7.433%; E: 4.2%; F: 4.384%
- Fc1cccc(CN2CCC3(CCN3c3ncccn3)C2)c1.O=C(O)C(F)(F)F (centres undefined) : C: -2.43%; E: 2.168%
- O=C(Cc1ccccn1)N1CCC2(CC1)[C@H](O)C[C@@H]2O : A: 7.548%; B: 18.68%; C: -28.63%; D: -10.98%; E: -21.23%; F: -4.337%
- CC(C)N(Cc1ccccn1)C(=O)CN(C)C(=O)c1cccs1 : A: -5.949%; B: 13.25%; C: -5.15%; D: 1.314%; E: 2.121%; F: 4.391%
- CN(C)CCN1C(=O)C2(CCN(CC3CC3)CC2)c2ccccc21 : A: -12.67%; B: 13.86%; D: -0.5294%; F: 6.312%
- Cc1nc(C)c(CNC(=O)NC2CC(C)(C)OC2(C)C)s1 (centres undefined) : A: -4.444%; B: 2.74%; C: -16.33%; D: -3.706%; E: 1.67%; F: -1.033%
- CN(Cc1cscn1)C1CCCN(Cc2noc(C3CC3)n2)C1 (centres undefined) : A: -12.3%; B: 40.91%; C: 8.648%; D: 9.983%; E: 15.13%; F: -2.17%

The first 3 entries again:

{"structure": "Cc1nc(-c2ccsc2)ccc1C(=O)NCCN1CCOCC1", "A": -10.22, "B": -8.8, "C": -2.387, "D": -3.891, "E": -11.86, "F": 1.064}
{"structure": "CN(C)C(=O)c1n[nH]c2c1CCN(Cc1nccs1)C2", "A": 18.98, "B": 14.47, "C": -19.17, "D": 3.288, "E": 0.251, "F": 0.4673}
{"structure": "CN1CCC(c2nnc3ccc(C(=O)N4CCCCC4)cn23)C1.O=C(O)C(F)(F)F", "stereo": "centres undefined", "C": 20.31, "E": -4.39}

Measurements from “University of Dundee, Small-Polar-MMV Screening Library” (2021), ChEMBL document CHEMBL3988442.